± gives the standard deviation. The list shows a part of the results. The uncertainty is large for many entries.
System: EfPiwi piRISC loaded with L1MC piRNA (26 nt)
Assay: pre-steady-state target cleavage rate (min^-1); guide: L1MC piRNA 5'p-UAACUAAAUACUAUGCAAGCUGUAGG; MIWI and MILI are mouse PIWI proteins and EfPiwi is from a freshwater sponge; tags in brackets are library labels; higher = faster piRNA-guided slicing of the target
Conditions: auxiliary factor: 500 nM Ephydatia muelleri Gtsf1
How it was run: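 The pre-steady-state cleavage rate was obtained by Cleave-'n-Seq with a burst-and-steady-state fit. A transcribed, DNA-blocked target RNA library (0.1 nM) was mixed with 1 nM active affinity-purified piRISC carrying one synthetic guide, with or without 500 nM GTSF1 partner protein, in HEPES–potassium acetate buffer at 33 °C for 0–8 or 0–960 min. Uncleaved targets were sequenced and normalised to depth and to weakly complementary targets, with three trials pooled and k3 capped at 0.0001 min^-1.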

Sequence | pre-steady-state target cleavage rate
UCCUGGUACUGCUUGCAUAGUAAUUAGUUA | 0.114 ± 0.043
UCCUGGAUGUCGAACGAUAGUAUUUAGUAA [g3:g14:cont:t1A] | 0.000334 ± 0.017
UCCUGGAUGUGCUUGCAUAGUACUUAGUUA | 0.00522 ± 0.0031
UCCUGGAUCAGCUUGCAAAGUAUUUAGUUA | 0.0218 ± 0.0057
UCCUGGAACAGCUUGCAUUGUUUUUAGUUA | 0.000813 ± 0.0028
UCCUGGAACAGGUUGCAAAGUAUUUAGUUA | 0.0118 ± 0.0039
UCCUGCUACAGCUUGCAUAGUAAUUUGUUA | 0.00579 ± 0.002
UCCUGGAACAGCUUGCAAAGUUUUUAGUUA | 0.00127 ± 0.0033
UCCUGGAACUGCUUGCUUAGUAUUUAGUUA | 0.00646 ± 0.0033
UCCUCCUACAUGCUUGCAUAGUAUUUAGUUA | 0.00449 ± 0.0018
UCCUGGAUCAGCUUGCAUAGUAUUUAGUGA | 0.0182 ± 0.0068
UCCUGGAUCAGCUUGCAUUGUAUUUUGUUA | 0.00121 ± 0.0042
UCCUGCUUGUGCUUGCAUAGUAUUUAGAAA | 0.00373 ± 0.0022
UCCUGCUACAGCUUGCUUAGUAUUUAGUAA | 0.00437 ± 0.0017
UCCUCCUACAGGAAGCAUAGUAUUUAGUUA | 0.0159 ± 0.0041
UCCUGGAUGUCGAACGUAAGUAUUUAGUUU [g2:g12:cont:t1U] | 0.000381 ± 0.015

Shown as tab-separated lines: part of the list above.
Sequence	pre-steady-state target cleavage rate
UCCUCCUACAUGCUUGCAUAGUAUUUAGUUA	0.00449 ± 0.0018
UCCUGGAUCAGCUUGCAUAGUAUUUAGUGA	0.0182 ± 0.0068

The list goes on.

Sequence | pre-steady-state target cleavage rate
UCCUGGAUCAGCUAGCAUAGUAUUUUGUUA | 0.00212 ± 0.0029
UCCUCCUAAGCUUGCAUAGUAUUUAGUUA | 0.0155 ± 0.0059
UCCUGGAUGUCGAACGUAUCUAUGUAGUUA | < 0.0001
UCCUGGAACAGCUAGCAUAGUAUAUAGUUA | 0.00219 ± 0.0031
UCCUGCUACAGCUUGGUUAGUAUUUAGUUA | 0.0105 ± 0.0033
UCCUGCUACAGCUUGCAUAGUAUUAAGUUA | 0.0064 ± 0.0019
UCCUCGUACAGCUUGCAUUGUAUUUAGUUA | 0.0163 ± 0.004
UCCUGGAUCAGCUUGCAUAGUAUUUGGUUA | 0.00498 ± 0.002
UCCUGGAUGUCCUUGCAUAGUAUAUAGUUA | 0.003 ± 0.004
UCCUGGUACUGCUUGCAUAGUUUUUAGUUA | 0.00107 ± 0.0081
UCCUGCUUCUGCUUGCAUAGUAUUUAGUUA | 0.0112 ± 0.0038
UCCUGGAAUCAGCUUGCAUAGUAUUUAGUUA | 0.0198 ± 0.0068
UCCUGGAUGUCCUUGCAUAGUAUUUAGUUC [g2:g19:cont:t1C] | 0.00867 ± 0.0028
UCCUGGAUCAGCUUGCAUAGUAUUUAGUAA | 0.00774 ± 0.0024
UCCUGGAUGUCGAACGUAUGUUUUAAGUUA | 0.000142 ± 0.035
UCCUGCUACAGGAAGCAUAGUAUUUAGUUA | 0.0127 ± 0.0035

Reference: the supplement of paper PMC10338343
